Laboratory results taken from patent US20110039770A1, “INHIBITORS OF PROTEIN KINASE C ISOFORMS AND USES THEREOF” (PHARMAGAP INC., priority 2005, published 2011).
Like-named read-outs stand apart in the source and are kept apart here. Where a SMILES comes first, the peptide text is derived from it.

System: IMR-32 neuroblastoma cells
Format: cell-based, human
[1] = 2.5 mg/ml, 24 h, pinocytic endocytosis reagent
[2] = 2.5 mg/ml, 48 h, pinocytic endocytosis reagent
[3] = 2.5 mg/ml, 72 h, pinocytic endocytosis reagent
[4] = 10 mg/ml, 24 h, pinocytic endocytosis reagent
[5] = 10 mg/ml, 48 h, pinocytic endocytosis reagent
[6] = 10 mg/ml, 72 h, pinocytic endocytosis reagent

Structure (SMILES)	AFI (Average Fluorescence Intensity) [1]	AFI (Average Fluorescence Intensity) [2]	AFI (Average Fluorescence Intensity) [3]	AFI (Average Fluorescence Intensity) [4]	AFI (Average Fluorescence Intensity) [5]	AFI (Average Fluorescence Intensity) [6]	AFI (Average Fluorescence Intensity) (62.5 μg/ml, 24 h)	AFI (Average Fluorescence Intensity) (62.5 μg/ml, 48 h)	AFI (Average Fluorescence Intensity) (62.5 μg/ml, 72 h)	AFI (Average Fluorescence Intensity) (125 μg/ml, 24 h)	AFI (Average Fluorescence Intensity) (125 μg/ml, 48 h)	AFI (Average Fluorescence Intensity) (125 μg/ml, 72 h)	AFI (Average Fluorescence Intensity) (250 μg/ml, 24 h)	AFI (Average Fluorescence Intensity) (250 μg/ml, 48 h)	AFI (Average Fluorescence Intensity) (250 μg/ml, 72 h)	AFI (Average Fluorescence Intensity) (500 μg/ml, 24 h)	AFI (Average Fluorescence Intensity) (500 μg/ml, 48 h)	AFI (Average Fluorescence Intensity) (500 μg/ml, 72 h)
CC[C@H](C)[C@H](NC(=O)[C@H](CO)NC(=O)[C@@H](NC(=O)CNC(=O)[C@@H](NC(=O)[C@H](CC(C)C)NC(=O)[C@H](CC(N)=O)NC(=O)[C@H](CCC(N)=O)NC(=O)[C@H](C)NC(=O)[C@H](CC(=O)O)NC(=O)CNC(=O)CNC(=O)[C@H](CCCCN)NC(=O)[C@@H](NC(=O)[C@H](CCC(=O)O)NC(=O)[C@H](CCC(N)=O)NC(=O)[C@@H](NC(=O)CNC(=O)[C@H](CCCCN)NC(=O)[C@H](C)NC(C)=O)[C@@H](C)CC)C(C)C)[C@@H](C)CC)[C@@H](C)CC)C(N)=O [PRE 3] (Ac-AKGIQEVKGGDAQNLIGISI-NH2)	193	389	871	182	334	830	–	–	–	–	–	–	–	–	–	–	–	–
CC[C@H](C)[C@H](NC(=O)[C@H](CO)NC(=O)[C@@H](NC(=O)CNC(=O)[C@@H](NC(=O)[C@H](CC(C)C)NC(=O)[C@H](CC(N)=O)NC(=O)[C@H](CCC(N)=O)NC(=O)[C@H](C)NC(=O)[C@H](CC(=O)O)NC(=O)[C@H](CCCCN)NC(C)=O)[C@@H](C)CC)[C@@H](C)CC)C(N)=O [PRE 4, Ac-KDAQNLIGISI-NH2] (Ac-KDAQNLIGISI-NH2)	179	240	777	173	247	809	–	–	–	–	–	–	–	–	–	–	–	–
CC[C@H](C)[C@H](NC(=O)[C@H](CO)NC(=O)[C@@H](NC(=O)CNC(=O)[C@@H](NC(=O)[C@H](CC(C)C)NC(=O)[C@H](CC(N)=O)NC(=O)[C@H](CCC(N)=O)NC(=O)[C@H](C)NC(=O)[C@H](CC(=O)O)NC(=O)[C@H](CCCCN)NC(=O)CNC(=O)CNC(=O)[C@H](CCCCN)NC(=O)[C@@H](NC(=O)[C@H](CCC(=O)O)NC(=O)[C@H](CCC(N)=O)NC(=O)[C@@H](NC(=O)CNC(=O)[C@H](CCCCN)NC(=O)[C@H](C)NC(C)=O)[C@@H](C)CC)C(C)C)[C@@H](C)CC)[C@@H](C)CC)C(N)=O [PRE 5] (Ac-AKGIQEVKGGKDAQNLIGISI-NH2)	–	–	–	–	–	–	717	1084	1290	593	991	1200	557	899	1150	492	891	1082
